10 substances from article PMC9858354 can be followed below.

Protein sequences, listed by entry. Tags and fused reporters are not part of them. Residues count along the entry.
UniProt P13500, residues 24-99: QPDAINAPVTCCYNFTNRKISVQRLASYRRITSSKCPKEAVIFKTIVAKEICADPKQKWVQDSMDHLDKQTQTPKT
UniProt P13501, residues 24-91: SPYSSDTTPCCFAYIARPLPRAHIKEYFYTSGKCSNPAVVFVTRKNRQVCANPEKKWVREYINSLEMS
UniProt P80075, residues 24-99: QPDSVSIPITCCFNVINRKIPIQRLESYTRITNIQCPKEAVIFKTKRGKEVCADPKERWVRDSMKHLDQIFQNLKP
UniProt O00585, residues 24-134: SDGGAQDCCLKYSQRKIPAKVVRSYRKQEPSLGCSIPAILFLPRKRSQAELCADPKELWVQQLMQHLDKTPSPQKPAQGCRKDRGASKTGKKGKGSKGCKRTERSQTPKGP
UniProt P80098, residues 24-99: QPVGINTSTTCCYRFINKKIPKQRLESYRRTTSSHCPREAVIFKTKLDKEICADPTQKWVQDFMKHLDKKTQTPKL
UniProt Q99731, residues 22-98: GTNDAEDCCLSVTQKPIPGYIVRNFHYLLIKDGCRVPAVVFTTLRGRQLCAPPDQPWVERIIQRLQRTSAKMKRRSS
UniProt P10148, residues 24-148: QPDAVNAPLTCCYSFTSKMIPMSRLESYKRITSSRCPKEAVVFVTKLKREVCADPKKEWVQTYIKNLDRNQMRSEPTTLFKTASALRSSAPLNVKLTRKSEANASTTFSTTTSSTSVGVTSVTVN

No constants are given. Whether binding was seen depends on the method and setting.

One experiment concerns the target T1, human C-C motif chemokine receptor-like 2 (CCRL2) isoform b, on HEK-huCCRL2 cells (human) (UniProt O00421).
T1 sequence: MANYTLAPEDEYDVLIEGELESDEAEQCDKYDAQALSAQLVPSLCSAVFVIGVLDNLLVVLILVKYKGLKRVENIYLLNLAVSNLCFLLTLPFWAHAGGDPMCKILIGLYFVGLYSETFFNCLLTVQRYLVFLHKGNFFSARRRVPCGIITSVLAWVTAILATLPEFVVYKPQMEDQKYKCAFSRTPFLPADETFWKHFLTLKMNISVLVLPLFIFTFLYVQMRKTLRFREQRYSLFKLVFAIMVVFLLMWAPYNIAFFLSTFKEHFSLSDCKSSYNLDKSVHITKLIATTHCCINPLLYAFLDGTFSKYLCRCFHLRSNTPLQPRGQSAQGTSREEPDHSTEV
Nature of the experiment: SPR; live-cell SPR microscopy (SPRm 200); HEK-huCCRL2 cells seeded on collagen-coated gold slides; analyte injected at 150 ul/min, contact 3 min, dissociation 5 min; running buffer PBS + 0.1% BSA; chemerin 10-400 nM; 1:1 binding model; n = 3; only the binder purified. For orientation: In SPR one partner is held on a chip, and binding of the other changes the refractive index at the surface.
In the case of “label-free human CCL2 (from UniProt P13500 24-99) (ligand)”, the binding result was “no binding”. The same measure, in the same setting: next, “label-free human CCL5 (from UniProt P13501 24-91) (ligand)”: “no binding”.

Another experiment deals with T1, human C-C motif chemokine receptor-like 2 (CCRL2) isoform b, on HEK-huCCRL2 cells (human). Briefly: flow cytometry on cells; serially diluted biotin-labeled ligand on HEK-huCCRL2, HEK-muCCRL2 or parental HEK cells (2x10^4 cells/well, 384-well), PBS + 0.1% BSA, 4°C 45 min, detected with RRX-streptavidin; MFI normalized to parental HEK cell binding; EC50 from four-parameter fit; only the binder purified.
Consider “biotin-labeled human CCL5 (from UniProt P13501 24-91) (ligand)”, for which the binding entry is reported as “no binding”.

On to “biotin-labeled human CCL8 (from UniProt P80075 24-99) (ligand)”, for which the binding result is “no binding”. Still for that read-out and setting: in the case of “biotin-labeled human CCL21 (from UniProt O00585 24-134) (ligand)” it was “no binding”; in that of “biotin-labeled human CCL7 (from UniProt P80098 24-99) (ligand)”, “no binding”; in that of “biotin-labeled human CCL19 (from UniProt Q99731 22-98) (ligand)”, “no binding”.

In the case of “biotin-labeled human CCL2 (from UniProt P13500 24-99) (ligand)”, the binding entry is on record as “no binding”.

Another experiment concerns the target T2, mouse C-C motif chemokine receptor-like 2 (CCRL2) isoform b, on HEK-muCCRL2 cells (mouse) (UniProt O35457).
T2 sequence: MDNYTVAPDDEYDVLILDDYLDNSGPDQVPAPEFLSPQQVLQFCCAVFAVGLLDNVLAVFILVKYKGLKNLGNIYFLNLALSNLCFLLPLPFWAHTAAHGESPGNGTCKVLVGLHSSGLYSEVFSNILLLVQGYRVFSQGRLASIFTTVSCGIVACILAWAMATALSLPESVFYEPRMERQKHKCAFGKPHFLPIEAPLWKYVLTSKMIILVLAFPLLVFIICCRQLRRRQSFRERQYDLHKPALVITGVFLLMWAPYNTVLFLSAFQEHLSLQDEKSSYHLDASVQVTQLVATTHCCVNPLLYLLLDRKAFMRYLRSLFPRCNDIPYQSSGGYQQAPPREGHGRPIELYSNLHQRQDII
The experiment is described as above.
Consider “biotin-labeled murine CCL7 (from UniProt Q03366 24-97) (ligand)”, for which the binding result was “no binding”. In the case of “biotin-labeled murine CCL2 (from UniProt P10148 24-148) (ligand)”, the binding result was “no binding”.
